# From PubChem BioAssay AID662 (National Center for Advancing Translational Sciences (NCATS), 2007)
# “And” between values parts separate entries of the source, which are not always exact repeats. Equal entries are not always repeated. The list shows a part of the results. Further columns of the screen follow, without active or inactive calls. The list favours compounds with an active or inconclusive main result. The note in brackets gives the kind of curve behind each potency; many fits are weak.
# Experiment: Cell signaling CRE-BLA (Fsk stim)
# Settings: CHO CRE-bla reporter (cAMP response element driving beta-lactamase), forskolin EC10, beta-lactamase ratio; measured here: 460 nm blue channel
# Procedure, shortened: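 Reporter-gene assay: CHO cells with beta-lactamase behind cAMP responsive elements, co-treated with compound and EC10 NKH 477 for 3 hours at 37 degrees Celsius. Activity came from the 460/530 nm CCF4 emission ratio.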
row,Structure (SMILES),AC50
1,O=C(Nc1ccc(O)cc1)C1CC=CCC1 (configuration not stated),"20 µM [falling, partial curve]"
2,Cc1nn(Cc2ccc(F)cc2)c(C)c1NC(=O)c1cc(-c2ccc3c(c2)OCO3)on1,"7.94 µM [rising, partial curve]"
3,Cn1nnnc1SCC(=O)Nc1ccccc1N1CCOCC1,"3.98 µM [falling, partial curve]"
4,CC1(C)CC(OC(=O)c2ccco2)CC(C)(C)N1O,"3.16 µM [falling, partial curve, poor fit]"
5,CC(C)NC(=O)C(C)n1cccc1C(=O)c1ccccc1 (configuration not stated),"0.631 µM [falling, full curve, poor fit]"
6,CC(C)N(CCC(=O)c1ccc2ccccc2c1)Cc1ccccc1,"15.8 µM [falling, partial curve] and 15.8 µM [falling, partial curve, poor fit]"
7,CCc1nc(-c2ccccc2O)n(-c2ccccc2)n1,"10 µM [rising, single point]"
8,O=c1c(-c2cccc(Cl)c2)nc2cncnc2n1Cc1ccccc1Cl,"12.6 µM [rising, partial curve]"
9,CCCn1c(SCC(=O)N2CCN(c3ccccc3)CC2)nc2ccccc2c1=O,"5.01 µM [falling, partial curve]"
10,CC(Cc1ccccc1)C(=O)NCCc1c[nH]c2ccccc12 (configuration not stated),"10 µM [falling, single point]"
11,CC1CCc2c(sc(NC(=O)c3noc4c3CCCC4)c2C(N)=O)C1 (configuration not stated),"12.6 µM [rising, single point]"
12,O=c1c(-c2cc(F)cc(F)c2)nc2cnc(N3CCNCC3)nc2n1Cc1ccc(F)cc1,"1.26 µM [rising, full curve]"
13,Cc1cc(C(=O)CSc2nnc(-c3ccco3)o2)c(C)n1CC1COc2ccccc2O1 (configuration not stated),"7.94 µM [falling, partial curve]"
14,c1nc2nc3c(c(N4CCOCC4)n2n1)CCCC3,"2.51 µM [rising, full curve]"
15,O=C(CCCCn1c(=O)c2ccccc2n(CC(=O)NC2CCCC2)c1=O)NCc1ccco1,"0.501 µM [falling, partial curve]"
16,NC(=O)C1(N2CCCCC2)CCN(C(=O)c2cccn3c(=O)c4cc(Cl)ccc4nc23)CC1,"15.8 µM [rising, partial curve]"
17,c1ccc2c(N3CCOCC3)nc(-c3ccoc3)nc2c1,"5.01 µM [rising, partial curve]"
18,CCOC(=O)CSc1nc2cc(C(=O)NCc3ccco3)ccc2c(=O)n1C1CCCCC1,"1 µM [rising, single point]"
19,CCOCCCn1c(=N)c(C(N)=S)cc2c(=O)n3cccc(C)c3nc21,"20 µM [rising, single point]"
20,CCOC(=O)c1c(NC(=O)CSc2nnnn2CC)sc(C)c1C,"12.6 µM [rising, partial curve]"
21,CCCS(=O)(=O)N1CCc2cc(OC)c(OC)cc2C1,"25.1 µM [rising, single point]"

row,Structure (SMILES),AC50
1,COC(=O)Nc1nnc(-c2ccccc2Cl)s1,"10 µM [rising, single point]"
2,CCOC(=O)c1cc2c(=O)n3ccccc3nc2n(CC2CCCO2)c1=NC(C)=O (configuration not stated),"12.6 µM [rising, partial curve]"
3,O=C(c1cc(-c2ccc(Cl)c(Cl)c2)on1)N1CCCCC1,"1.26 µM [rising, full curve, poor fit]"
4,COc1cc(C2C(C(=O)c3ccc(C)o3)=C(O)C(=O)N2Cc2cccnc2)ccc1O (configuration not stated),"15.8 µM [falling, partial curve]"
5,Cn1c(=O)n(CC(=O)N2CCN(c3nnc(-c4ccccc4)c4ccccc34)CC2)c2ccccc21,"12.6 µM [falling, single point]"
6,COc1ccc(Cl)c(Cn2c(NCc3ccco3)nc3c2c(=O)n(C)c(=O)n3C)c1,"15.8 µM [rising, partial curve]"
7,CCOC(=O)c1sc(NC(=O)c2ccc(S(=O)(=O)N3CCOCC3)cc2)cc1C,"15.8 µM [rising, partial curve]"
8,COc1ccc(OC)c(C2=NOC(C(=O)NCCN3CCOCC3)C2)c1 (configuration not stated),"0.01 µM [falling, full curve]"
9,CC1CCCCC1NC(=O)C1Cc2ccccc2CN1S(C)(=O)=O (configuration not stated),"3.16 µM [falling, single point]"
10,COc1cccc(-n2nnc3c(=O)n(Cc4cccc(F)c4)cnc32)c1,"10 µM [rising, partial curve]"
11,COC(=O)c1ccccc1NC(=O)COC(=O)c1ccc(C)c(NC(=O)c2ccco2)c1,"7.94 µM [rising, partial curve]"
12,O=C(CSc1ncnc2nc[nH]c12)N1CCOCC1,"0.00398 µM [falling, full curve, poor fit]"
13,COC(=O)CSc1nc2sc(C)c(C)c2c(=O)n1C,"3.98 µM [rising, full curve]"
14,Cc1nc2cnc(N(C)C)nc2n(CCC#N)c1=O,"10 µM [rising, partial curve]"
15,NC(=O)c1cc(-c2ccccc2)sc1NC(=O)Cc1ccc(S(=O)(=O)N2CCOCC2)s1,"1 µM [rising, full curve, poor fit]"
16,Cc1cc(NC(=O)COC(=O)CSc2nc3cc(Cl)ccc3n2Cc2ccccc2)no1,"25.1 µM [rising, single point]"
17,COCCn1c(=O)c(-c2cccs2)nc2cnc(Nc3ccccc3)nc21,"1.58 µM [rising, full curve]"
18,Cc1cc(NC(=O)CCC(=O)N(C2CC2)C2(C(=O)NC3CCCC3)CCC(C)CC2)no1 (configuration not stated),"25.1 µM [rising, single point]"
19,CN1CCN(c2nc(-c3ccoc3)nc3ccccc23)CC1,"10 µM [rising, partial curve]"
20,COC(=O)CSc1nc2cc3c(cc2cc1C#N)OCO3,"5.01 µM [falling, single point]"
21,O=C(C1CCCN(S(=O)(=O)c2cccc3cccnc23)C1)N1CCN(c2ccccc2F)CC1 (configuration not stated),"3.98 µM [falling, partial curve]"
